# Laboratory results: patent US20100028342A1
# Sequences of proteins named here, by UniProt entry; tags and fusion partners are left off. Residues count along the entry.
# UniProt P08069, residues 31-1367: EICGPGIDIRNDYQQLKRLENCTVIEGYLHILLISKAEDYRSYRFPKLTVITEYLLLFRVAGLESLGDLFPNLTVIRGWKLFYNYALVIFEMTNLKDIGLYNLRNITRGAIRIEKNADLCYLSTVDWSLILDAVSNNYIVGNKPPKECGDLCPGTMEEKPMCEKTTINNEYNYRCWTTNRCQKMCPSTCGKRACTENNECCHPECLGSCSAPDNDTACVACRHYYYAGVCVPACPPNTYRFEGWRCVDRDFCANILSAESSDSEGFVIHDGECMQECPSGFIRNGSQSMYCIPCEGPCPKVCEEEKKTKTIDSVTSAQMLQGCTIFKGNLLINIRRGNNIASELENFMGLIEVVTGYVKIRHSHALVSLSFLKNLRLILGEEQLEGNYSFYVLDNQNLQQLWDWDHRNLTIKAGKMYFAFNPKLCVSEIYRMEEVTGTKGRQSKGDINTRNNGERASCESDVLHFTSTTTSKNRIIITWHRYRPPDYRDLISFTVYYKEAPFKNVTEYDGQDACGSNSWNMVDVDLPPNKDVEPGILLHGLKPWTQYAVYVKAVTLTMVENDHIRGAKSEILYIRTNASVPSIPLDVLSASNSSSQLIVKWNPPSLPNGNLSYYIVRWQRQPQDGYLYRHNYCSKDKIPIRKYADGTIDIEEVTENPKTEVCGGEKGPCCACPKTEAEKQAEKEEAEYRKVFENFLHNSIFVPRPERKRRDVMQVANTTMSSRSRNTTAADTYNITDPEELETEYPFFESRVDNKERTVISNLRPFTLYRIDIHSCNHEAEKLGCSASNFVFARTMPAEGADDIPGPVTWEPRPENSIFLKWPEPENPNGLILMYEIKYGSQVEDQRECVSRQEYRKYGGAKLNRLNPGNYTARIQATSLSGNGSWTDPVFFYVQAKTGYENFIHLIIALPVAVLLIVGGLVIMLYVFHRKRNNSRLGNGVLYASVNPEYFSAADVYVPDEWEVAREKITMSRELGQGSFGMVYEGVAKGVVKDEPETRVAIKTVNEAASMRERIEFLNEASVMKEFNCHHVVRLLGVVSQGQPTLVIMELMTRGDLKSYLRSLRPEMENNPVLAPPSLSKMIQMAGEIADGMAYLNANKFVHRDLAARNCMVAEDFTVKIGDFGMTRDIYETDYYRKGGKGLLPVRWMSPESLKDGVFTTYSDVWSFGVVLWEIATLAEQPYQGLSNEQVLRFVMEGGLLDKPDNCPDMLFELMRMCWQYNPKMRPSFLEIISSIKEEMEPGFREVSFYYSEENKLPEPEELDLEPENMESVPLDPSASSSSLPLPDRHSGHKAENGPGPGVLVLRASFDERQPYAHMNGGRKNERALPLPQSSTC
# UniProt P01344, residues 25-91: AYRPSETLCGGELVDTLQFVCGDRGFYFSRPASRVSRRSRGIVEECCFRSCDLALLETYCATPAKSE
# Results are given in words; binding and its absence hold for the method and conditions named. Some entries that bind do so weakly or less than the wild type.
# Target: native human IGF-IR on human tumor cells (human) (UniProt P08069)
# Assay: competition with 125I-IGF-I for binding to native IGF-IR on MCF7 cells; cold IGF-II titrated
substance,measurement,value
IGF-II (from UniProt P01344 25-91) (ligand),binding,binds
